{"source": "patent US4431742A", "about": "“Radioreceptor assay for benzodiazepines in saliva” (The United States of America as represented by the …, priority 1981, dated 1984)", "system": "benzodiazepine receptor (fresh rat frontal cortex)", "assay": "recovery of benzodiazepines pre-incubated with saliva, measured by benzodiazepine radioreceptor assay", "format": "binding", "settings": "100 nM diazepam, 10 mins at 37° C. with control saliva"}
{"smiles": "CN1C(=O)CN=C(c2ccccc2)c2cc(Cl)ccc21", "note": "[diazepam]", "values": [{"measurement": "time course and extent of reduction of binding, pre-incubated with saliva vs dissolved in buffer", "value": "the same"}]}
